Earlier results in patent US11573234B2, “Predicting responders to cyclophosphamide therapy” (Royal Melbourne Institute of Technology, priority 2017, dated 2023).
Some of these results come from one statement about several compounds together. Some compounds share one range, which may span the group rather than tell each member.

Tested on: recurrent uterine and ovarian cancers
Conditions: platinum resistant disease; cited from earlier work

For `O=P1(NCCCl)OCCCN1CCCl` (stereo not shown) [ifosfamide], the response rates is listed as 12-30%.
